Measured values from the supplement of paper PMC10060354, “Discovery of a small molecule ligand of FRS2 that inhibits invasion and tumor growth” (Cellular Oncology, 2022).
Many values rest on one well or one pass, so single values are uncertain.

Amino acid sequences for entries named in this document (tags omitted). A change or cut given only in a name is not applied to a line headed by its entry.
UniProt Q96GK7: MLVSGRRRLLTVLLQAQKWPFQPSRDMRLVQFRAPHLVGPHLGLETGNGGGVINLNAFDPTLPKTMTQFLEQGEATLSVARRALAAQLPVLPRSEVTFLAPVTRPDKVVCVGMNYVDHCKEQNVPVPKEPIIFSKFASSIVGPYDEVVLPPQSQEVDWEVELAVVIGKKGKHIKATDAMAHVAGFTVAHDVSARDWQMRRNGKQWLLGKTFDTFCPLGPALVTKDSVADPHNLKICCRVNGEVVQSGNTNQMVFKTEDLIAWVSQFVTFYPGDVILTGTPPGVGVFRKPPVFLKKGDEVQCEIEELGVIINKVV
UniProt Q96DA6: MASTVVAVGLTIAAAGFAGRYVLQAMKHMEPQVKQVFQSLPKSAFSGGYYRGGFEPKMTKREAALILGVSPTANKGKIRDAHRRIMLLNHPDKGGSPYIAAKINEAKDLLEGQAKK
UniProt Q08J23, whole entry: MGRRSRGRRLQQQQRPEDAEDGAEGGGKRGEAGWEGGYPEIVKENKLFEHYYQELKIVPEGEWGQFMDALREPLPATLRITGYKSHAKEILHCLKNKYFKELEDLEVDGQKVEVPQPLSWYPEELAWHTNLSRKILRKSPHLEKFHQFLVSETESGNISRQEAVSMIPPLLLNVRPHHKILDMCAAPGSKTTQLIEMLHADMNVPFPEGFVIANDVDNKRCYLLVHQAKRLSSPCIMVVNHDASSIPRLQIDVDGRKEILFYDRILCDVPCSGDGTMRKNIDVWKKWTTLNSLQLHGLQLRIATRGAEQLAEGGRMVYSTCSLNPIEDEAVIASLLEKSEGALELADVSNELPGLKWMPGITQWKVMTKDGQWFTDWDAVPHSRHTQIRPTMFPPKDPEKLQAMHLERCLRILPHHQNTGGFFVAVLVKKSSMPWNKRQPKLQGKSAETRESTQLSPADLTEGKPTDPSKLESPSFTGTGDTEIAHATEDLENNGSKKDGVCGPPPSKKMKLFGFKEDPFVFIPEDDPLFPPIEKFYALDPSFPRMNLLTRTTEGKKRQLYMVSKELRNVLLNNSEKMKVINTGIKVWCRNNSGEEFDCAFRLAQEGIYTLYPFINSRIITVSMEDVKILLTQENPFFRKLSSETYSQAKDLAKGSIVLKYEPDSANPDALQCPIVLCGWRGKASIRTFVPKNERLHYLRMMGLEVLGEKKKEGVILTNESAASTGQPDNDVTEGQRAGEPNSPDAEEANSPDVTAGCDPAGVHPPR
UniProt P17174: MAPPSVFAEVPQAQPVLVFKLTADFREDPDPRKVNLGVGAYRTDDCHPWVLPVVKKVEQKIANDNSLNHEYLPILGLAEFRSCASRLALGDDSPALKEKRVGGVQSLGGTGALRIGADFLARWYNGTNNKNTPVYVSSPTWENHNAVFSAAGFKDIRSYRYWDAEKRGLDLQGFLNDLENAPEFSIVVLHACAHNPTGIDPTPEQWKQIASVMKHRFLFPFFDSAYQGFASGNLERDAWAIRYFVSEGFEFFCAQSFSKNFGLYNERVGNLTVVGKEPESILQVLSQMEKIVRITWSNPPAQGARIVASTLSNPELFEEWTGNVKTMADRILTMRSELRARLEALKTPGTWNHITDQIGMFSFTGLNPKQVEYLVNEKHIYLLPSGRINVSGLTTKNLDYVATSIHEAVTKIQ
UniProt Q9H4L4: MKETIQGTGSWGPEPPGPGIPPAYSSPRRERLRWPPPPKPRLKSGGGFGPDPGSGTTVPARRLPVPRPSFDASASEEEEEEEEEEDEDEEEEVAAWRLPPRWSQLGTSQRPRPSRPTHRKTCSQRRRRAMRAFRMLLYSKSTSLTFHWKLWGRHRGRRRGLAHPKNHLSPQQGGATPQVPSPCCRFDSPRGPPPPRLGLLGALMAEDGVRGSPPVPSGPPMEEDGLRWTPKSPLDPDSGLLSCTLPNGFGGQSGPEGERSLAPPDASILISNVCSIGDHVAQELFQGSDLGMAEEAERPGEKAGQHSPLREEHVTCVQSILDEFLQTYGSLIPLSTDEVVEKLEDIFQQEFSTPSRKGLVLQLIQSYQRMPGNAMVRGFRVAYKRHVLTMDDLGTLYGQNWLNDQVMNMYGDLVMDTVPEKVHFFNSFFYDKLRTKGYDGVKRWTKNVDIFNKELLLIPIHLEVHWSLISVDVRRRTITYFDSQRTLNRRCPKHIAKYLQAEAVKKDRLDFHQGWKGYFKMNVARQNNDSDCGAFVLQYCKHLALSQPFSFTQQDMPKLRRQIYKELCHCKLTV
UniProt Q6P1K2: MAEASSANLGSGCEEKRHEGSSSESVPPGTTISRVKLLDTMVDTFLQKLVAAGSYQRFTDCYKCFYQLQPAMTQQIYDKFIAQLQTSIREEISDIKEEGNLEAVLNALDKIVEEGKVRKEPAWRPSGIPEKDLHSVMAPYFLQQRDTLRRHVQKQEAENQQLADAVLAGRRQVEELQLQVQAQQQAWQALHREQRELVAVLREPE
UniProt Q8WXF0: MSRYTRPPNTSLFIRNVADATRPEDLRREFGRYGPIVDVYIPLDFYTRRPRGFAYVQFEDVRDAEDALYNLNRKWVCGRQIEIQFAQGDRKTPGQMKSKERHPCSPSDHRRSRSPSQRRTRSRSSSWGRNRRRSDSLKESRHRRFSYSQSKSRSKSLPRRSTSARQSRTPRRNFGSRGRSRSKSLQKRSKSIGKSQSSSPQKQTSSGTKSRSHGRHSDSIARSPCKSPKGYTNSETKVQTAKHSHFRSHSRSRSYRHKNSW
UniProt P04792, whole entry: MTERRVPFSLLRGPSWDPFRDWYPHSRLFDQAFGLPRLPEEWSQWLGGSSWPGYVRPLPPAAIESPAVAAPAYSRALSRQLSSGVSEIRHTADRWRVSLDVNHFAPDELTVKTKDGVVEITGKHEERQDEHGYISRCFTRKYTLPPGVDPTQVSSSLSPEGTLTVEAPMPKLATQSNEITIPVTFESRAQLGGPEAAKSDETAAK
UniProt Q15262: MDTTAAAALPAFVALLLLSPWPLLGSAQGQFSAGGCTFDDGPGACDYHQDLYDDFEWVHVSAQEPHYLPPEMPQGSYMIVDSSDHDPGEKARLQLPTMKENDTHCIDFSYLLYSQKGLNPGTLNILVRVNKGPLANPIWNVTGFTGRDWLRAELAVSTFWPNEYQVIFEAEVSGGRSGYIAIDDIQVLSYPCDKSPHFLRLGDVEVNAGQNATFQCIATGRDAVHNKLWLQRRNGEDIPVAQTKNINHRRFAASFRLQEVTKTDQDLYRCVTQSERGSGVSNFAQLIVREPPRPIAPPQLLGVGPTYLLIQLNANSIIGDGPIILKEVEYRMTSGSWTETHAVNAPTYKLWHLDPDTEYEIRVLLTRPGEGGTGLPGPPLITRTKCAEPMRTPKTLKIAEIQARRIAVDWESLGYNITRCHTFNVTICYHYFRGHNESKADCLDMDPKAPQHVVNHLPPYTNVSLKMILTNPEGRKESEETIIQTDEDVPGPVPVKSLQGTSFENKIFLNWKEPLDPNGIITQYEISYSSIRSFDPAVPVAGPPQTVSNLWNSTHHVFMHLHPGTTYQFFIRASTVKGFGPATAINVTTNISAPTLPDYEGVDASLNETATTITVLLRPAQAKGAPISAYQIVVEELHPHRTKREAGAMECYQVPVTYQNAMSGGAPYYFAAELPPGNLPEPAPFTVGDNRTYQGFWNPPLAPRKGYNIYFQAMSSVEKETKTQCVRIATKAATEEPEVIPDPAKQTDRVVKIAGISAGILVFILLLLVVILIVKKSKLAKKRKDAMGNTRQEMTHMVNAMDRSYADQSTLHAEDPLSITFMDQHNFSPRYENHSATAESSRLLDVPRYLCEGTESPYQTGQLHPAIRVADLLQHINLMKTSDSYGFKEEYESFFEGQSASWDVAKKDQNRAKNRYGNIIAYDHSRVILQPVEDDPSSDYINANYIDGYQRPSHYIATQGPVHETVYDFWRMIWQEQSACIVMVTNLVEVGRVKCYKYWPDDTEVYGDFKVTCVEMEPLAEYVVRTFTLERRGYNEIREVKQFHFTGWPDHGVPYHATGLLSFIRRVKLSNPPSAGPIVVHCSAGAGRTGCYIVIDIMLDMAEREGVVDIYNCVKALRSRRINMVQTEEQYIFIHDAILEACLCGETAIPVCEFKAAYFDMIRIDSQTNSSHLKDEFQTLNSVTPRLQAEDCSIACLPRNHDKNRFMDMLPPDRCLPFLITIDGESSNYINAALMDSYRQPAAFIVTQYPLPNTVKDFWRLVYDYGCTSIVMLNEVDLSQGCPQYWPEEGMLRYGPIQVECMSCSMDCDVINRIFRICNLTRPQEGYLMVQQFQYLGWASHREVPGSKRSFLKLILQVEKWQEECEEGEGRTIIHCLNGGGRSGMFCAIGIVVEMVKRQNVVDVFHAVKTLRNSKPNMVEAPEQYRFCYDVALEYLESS
UniProt Q15907: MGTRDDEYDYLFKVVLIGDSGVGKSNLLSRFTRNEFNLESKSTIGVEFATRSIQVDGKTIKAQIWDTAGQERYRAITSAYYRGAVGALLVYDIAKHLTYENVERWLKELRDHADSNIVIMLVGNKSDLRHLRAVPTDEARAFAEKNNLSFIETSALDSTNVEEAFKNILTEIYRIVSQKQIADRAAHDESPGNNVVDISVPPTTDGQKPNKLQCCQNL
UniProt O75487: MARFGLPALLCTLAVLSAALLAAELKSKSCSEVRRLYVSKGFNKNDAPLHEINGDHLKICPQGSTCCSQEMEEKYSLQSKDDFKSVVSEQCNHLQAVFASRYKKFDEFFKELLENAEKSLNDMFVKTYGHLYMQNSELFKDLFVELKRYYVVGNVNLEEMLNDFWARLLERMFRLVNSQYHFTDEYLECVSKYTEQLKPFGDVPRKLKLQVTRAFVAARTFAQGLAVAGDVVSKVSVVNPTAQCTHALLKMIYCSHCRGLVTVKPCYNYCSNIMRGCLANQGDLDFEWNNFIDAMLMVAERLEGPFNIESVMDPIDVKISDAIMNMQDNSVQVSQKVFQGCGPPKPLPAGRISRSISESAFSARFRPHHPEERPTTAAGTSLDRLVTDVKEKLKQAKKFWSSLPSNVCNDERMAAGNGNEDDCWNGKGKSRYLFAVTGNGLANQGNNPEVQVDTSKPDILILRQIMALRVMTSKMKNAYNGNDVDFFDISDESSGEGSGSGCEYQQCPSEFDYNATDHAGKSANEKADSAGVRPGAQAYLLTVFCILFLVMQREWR
UniProt Q99470: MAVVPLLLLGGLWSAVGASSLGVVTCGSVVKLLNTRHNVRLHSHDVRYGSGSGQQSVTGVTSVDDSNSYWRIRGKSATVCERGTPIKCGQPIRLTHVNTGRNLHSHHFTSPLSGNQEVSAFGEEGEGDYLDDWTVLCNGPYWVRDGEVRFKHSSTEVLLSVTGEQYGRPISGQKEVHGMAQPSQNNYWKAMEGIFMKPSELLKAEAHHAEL
UniProt Q9NRC1: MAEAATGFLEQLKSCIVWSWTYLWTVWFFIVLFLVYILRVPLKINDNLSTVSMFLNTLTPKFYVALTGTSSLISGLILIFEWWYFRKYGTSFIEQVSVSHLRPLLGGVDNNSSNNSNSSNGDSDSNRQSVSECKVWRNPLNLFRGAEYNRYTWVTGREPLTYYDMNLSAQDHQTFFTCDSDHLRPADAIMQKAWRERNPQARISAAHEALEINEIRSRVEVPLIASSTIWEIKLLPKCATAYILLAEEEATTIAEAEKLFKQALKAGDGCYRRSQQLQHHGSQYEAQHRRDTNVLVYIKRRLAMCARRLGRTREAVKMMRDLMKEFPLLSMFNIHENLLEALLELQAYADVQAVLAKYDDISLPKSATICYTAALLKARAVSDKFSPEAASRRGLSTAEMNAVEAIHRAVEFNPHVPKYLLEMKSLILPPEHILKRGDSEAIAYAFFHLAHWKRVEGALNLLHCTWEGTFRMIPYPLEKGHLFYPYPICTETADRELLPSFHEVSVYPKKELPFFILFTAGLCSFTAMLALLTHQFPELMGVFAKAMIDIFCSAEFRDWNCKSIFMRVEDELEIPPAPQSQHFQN
UniProt P27986, whole entry: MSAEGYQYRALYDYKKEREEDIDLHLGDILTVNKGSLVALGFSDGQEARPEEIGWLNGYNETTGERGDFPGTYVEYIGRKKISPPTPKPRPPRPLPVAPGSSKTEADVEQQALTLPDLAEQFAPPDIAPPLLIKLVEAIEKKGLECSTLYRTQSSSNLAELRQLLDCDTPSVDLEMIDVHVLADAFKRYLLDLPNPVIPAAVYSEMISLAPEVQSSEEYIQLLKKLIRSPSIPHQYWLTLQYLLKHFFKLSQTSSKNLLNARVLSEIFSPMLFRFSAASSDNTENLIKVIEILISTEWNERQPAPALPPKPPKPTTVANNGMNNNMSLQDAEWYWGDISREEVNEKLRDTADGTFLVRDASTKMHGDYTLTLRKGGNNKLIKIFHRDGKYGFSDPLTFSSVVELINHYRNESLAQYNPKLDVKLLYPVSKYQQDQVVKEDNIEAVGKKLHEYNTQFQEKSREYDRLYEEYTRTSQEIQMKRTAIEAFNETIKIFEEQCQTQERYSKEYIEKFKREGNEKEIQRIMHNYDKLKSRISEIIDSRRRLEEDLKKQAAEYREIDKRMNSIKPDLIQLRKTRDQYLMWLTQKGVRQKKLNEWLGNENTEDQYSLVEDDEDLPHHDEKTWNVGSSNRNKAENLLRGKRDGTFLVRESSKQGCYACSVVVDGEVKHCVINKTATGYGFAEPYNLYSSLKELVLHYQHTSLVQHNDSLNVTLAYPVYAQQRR

Compound: [O-][N+](C(C1=C(C(O)=C2)NC(C(C=C3)=CC=C3Cl)C4C1C=CC4)=C2Cl)=O
Assay: melting temperature shift (compound 7 minus DMSO); higher = compound stabilises the protein
Conditions: 10 µM
Description: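 Thermal proteome profiling (TMT mass spectrometry) in intact DAOY medulloblastoma cells or DAOY lysates treated with 10 µM compound 7 or DMSO, heated at 10 temperatures from 40.5 to 73.8 °C for 3 min. Melting curves were fitted with the Bioconductor TPP package, and the melting point difference between compound and vehicle is reported per protein (single curve per condition).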

[1] = system: DAOY cell lysate, treatment time: 20 min, 4 °C
[2] = system: intact DAOY cells, treatment time: 90 min, 37 °C

Target	melting temperature shift [1] [°C]	melting temperature shift [2] [°C]
FAHD2A (UniProt Q96GK7)	-1.56	-0.0772
UniProt Q96CX6	-0.0557	1.35
RBKS (UniProt Q9H477)	-4.06	–
SELK (UniProt Q9Y6D0)	2.82	1.42
UniProt Q9BXL8	-2.32	–
ZMYM4 (UniProt Q5VZL5)	-1.06	–
UniProt P33778	2.06	-1.2
HIRIP3 (UniProt Q9BW71)	1.41	4.6
TAF2 (UniProt Q6P1X5)	-0.804	-1.24
PRPF6 (UniProt O94906)	-0.453	0.318
UniProt Q96A29	-0.198	–
DHX29 (UniProt Q7Z478)	-0.308	-0.0683
UniProt Q9NRB3	0.504	–
INPP4A (UniProt Q96PE3)	-0.253	–
BUB1 (UniProt O43683)	-0.256	1.66
DNAJC19 (UniProt Q96DA6)	2.06	-0.573
NSUN2 (UniProt Q08J23)	0.255	0.56
UniProt Q8TBF2	-0.306	–
SLC7A11 (UniProt Q9UPY5)	–	2.52
ARF4 (UniProt P18085)	-1.02	-1.59
UBE2Z (UniProt Q9H832)	0.0634	-0.825
UniProt O95625	-0.328	–
G3BP2 (UniProt Q9UN86)	0.382	-0.568
NCAPD2 (UniProt Q15021)	-0.226	-0.807

Target	melting temperature shift [1] [°C]	melting temperature shift [2] [°C]
PRKACG (UniProt P22612)	–	-0.602
UniProt Q96FB5	-2.13	–
TAMM41 (UniProt Q96BW9)	-0.289	0.0226
RPS29 (UniProt P62273)	1.6	-0.818
GOT1 (UniProt P17174)	-0.225	-1.26
EPHX1 (UniProt P07099)	2.16	-0.668
UniProt Q9H4L4	0.586	–
UniProt P12111	0.9	0.325
UniProt Q9H9Q4	0.585	–
ASPSCR1 (UniProt Q9BZE9)	-0.269	-0.797
ANXA4 (UniProt P09525)	-0.0203	0.371
SART3 (UniProt Q15020)	-0.318	0.114
PMF1 (UniProt Q6P1K2)	0.246	-1.42
RPS5 (UniProt P46782)	0.336	-1.15
UniProt Q9HCJ6	-0.967	–
ANKRD44 (UniProt Q8N8A2)	-1.09	-0.0689
GABARAPL2 (UniProt P60520)	-0.699	0.152
TNS2 (UniProt Q63HR2)	–	0.13
UniProt Q8WV22	-1.3	0.599
NEURL4 (UniProt Q96JN8)	-1.69	0.394
CARM1 (UniProt Q86X55)	-0.104	0.415
UniProt O14791	–	-0.463
MPP1 (UniProt Q00013)	0.979	-0.0226
UniProt O60739	–	0.107

Target	melting temperature shift [1] [°C]	melting temperature shift [2] [°C]
CDC42BPB (UniProt Q9Y5S2)	-0.485	-0.0863
UniProt Q8WXF0	–	0.114
UniProt O95154	–	-0.125
ATP6AP1 (UniProt Q15904)	0.252	0.345
SLC43A3 (UniProt Q8NBI5)	1.48	-1.97
TARS (UniProt P26639)	-0.659	0.911
ZWILCH (UniProt Q9H900)	-0.511	0.332
HSPB1 (UniProt P04792)	-0.465	0.855
POLR2B (UniProt P30876)	-0.852	0.538
ABHD6 (UniProt Q9BV23)	–	-0.468
PSMD4 (UniProt P55036)	-1.13	-1.28
MON1B (UniProt Q7L1V2)	7.43	0.767
SNRPA1 (UniProt P09661)	0.133	0.269
PPP1R12A (UniProt O14974)	-0.465	-0.686
MRPL50 (UniProt Q8N5N7)	-0.946	-1
UniProt Q9P289	-0.315	-1.01
HSD17B7 (UniProt P56937)	–	0.749
PTPRK (UniProt Q15262)	-1.82	1.57
PAPOLG (UniProt Q9BWT3)	1.85	-3.11
RAB11B (UniProt Q15907)	0.018	-0.801
MRFAP1 (UniProt Q9Y605)	1.45	–
SIRT5 (UniProt Q9NXA8)	0.59	1.22
UniProt Q96FA7	–	-0.239
PYCR1 (UniProt P32322)	-0.293	1.7

Target	melting temperature shift [1] [°C]	melting temperature shift [2] [°C]
ARFGAP3 (UniProt Q9NP61)	-0.703	-0.173
CCDC91 (UniProt Q7Z6B0)	–	1.37
STK39 (UniProt Q9UEW8)	-2.17	2.96
YOD1 (UniProt Q5VVQ6)	–	0.803
ITGB1 (UniProt P05556)	2.98	–
UniProt P27449	-0.621	–
ALDH1B1 (UniProt P30837)	-0.409	-0.808
SLTM (UniProt Q9NWH9)	0.973	0.245
MRE11A (UniProt P49959)	-0.838	1.82
AGO1 (UniProt Q9UL18)	3.26	–
B3EWG6 (UniProt B3EWG3)	-3.53	2.12
RMND1 (UniProt Q9NWS8)	0.322	-0.918
DMPK (UniProt Q09013)	–	1.39
SRGAP2 (UniProt O75044)	0.000481	-1.14
HAUS3 (UniProt Q68CZ6)	-1.08	0.27
UniProt Q14781	0.671	–
RETSAT (UniProt Q6NUM9)	-0.0101	0.908
UniProt O75487	0.0909	–
UniProt Q8N612	1.41	–
UniProt Q8NHY2	-1.4	–
UniProt Q8N4S0	1.96	–
KTI12 (UniProt Q96EK9)	0.707	-1.18
NDUFA4 (UniProt O00483)	2.98	-0.769
DSCC1 (UniProt Q9BVC3)	0.183	0.717

Target	melting temperature shift [1] [°C]	melting temperature shift [2] [°C]
DXO (UniProt O77932)	–	0.663
UniProt Q9BXP2	0.427	0.385
MYOF (UniProt Q9NZM1)	1.38	0.157
UniProt Q99719	–	-1.04
SDF2 (UniProt Q99470)	0.114	0.576
ISG15 (UniProt P05161)	-0.738	-0.161
UniProt Q6ZTI6	0.194	-1.57
ST7 (UniProt Q9NRC1)	–	-0.148
UniProt Q5VZM2	–	1.37
UniProt Q12872	-0.878	-1.62
ZNF451 (UniProt Q9Y4E5)	-1.57	–
UniProt P17544	–	0.889
TOMM34 (UniProt Q15785)	-0.649	-0.833
LGALS3 (UniProt P17931)	-0.528	-0.165
ACY1 (UniProt Q03154)	-1.46	4.06
APOOL (UniProt Q6UXV4)	0.375	–
UniProt O00287	–	-0.862
GCDH (UniProt Q92947)	0.116	0.0859
UniProt P27986	-1.79	-0.863
MRPS33 (UniProt Q9Y291)	0.388	0.271

Copied from the list:
Under melting temperature shift [2] [°C], UniProt Q5VZM2 shows 1.37
Under melting temperature shift [1] [°C], TAMM41 (UniProt Q96BW9) shows -0.289
Under melting temperature shift [1] [°C], ZMYM4 (UniProt Q5VZL5) shows -1.06
Under melting temperature shift [1] [°C], UniProt Q9H9Q4 shows 0.585
